# The list shows a part of the results.
# Legend:
# Assay in all cases: glycan array binding signal (z-score within array); higher = stronger binding
# Conditions in all cases: glycan notation: IUPAC condensed, linker removed
# [1] = tested on: Gal(b1-4)GlcNAc(b1-2)Man(a1-6)[GlcNAc(b1-2)Man(a1-3)]Man(b1-4)GlcNAc(b1-4)GlcNAc
# Method in brief: (§1)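 The binding signal is a Z-score computed within each array and averaged over linkers. Arrays of the same protein sequence at different concentrations or buffers were also averaged together. Data originate from 3228 arrays in the Consortium for Functional Glycomics database, kept only where the protein sequence was available.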
# [2] = tested on: Gal(b1-4)GlcNAc(b1-2)Man(a1-6)[Man(a1-3)]Man(b1-4)GlcNAc(b1-4)GlcNAc
# Method in brief: as §1
# Gal(b1-4)GlcNAc(b1-2)Man = tested on: Gal(b1-4)GlcNAc(b1-2)Man
# Method in brief: as §1
# [3] = tested on: Gal(b1-4)GlcNAc(b1-2)[Gal(b1-4)GlcNAc(b1-4)]Man(a1-3)[Gal(b1-4)GlcNAc(b1-2)Man(a1-6)]Man(b1-4)GlcNAc(b1-4)GlcNAc
# Method in brief: as §1
# [4] = tested on: Gal(b1-4)GlcNAc(b1-2)[Gal(b1-4)GlcNAc(b1-4)]Man(a1-3)[Gal(b1-4)GlcNAc(b1-2)[Gal(b1-4)GlcNAc(b1-6)]Man(a1-6)]Man(b1-4)GlcNAc(b1-4)GlcNAc
# Method in brief: as §1
# [5] = tested on: Gal(b1-4)GlcNAc(b1-2)[Gal(b1-4)GlcNAc(b1-4)]Man(a1-3)[GlcNAc(b1-4)][Gal(b1-4)GlcNAc(b1-2)Man(a1-6)]Man(b1-4)GlcNAc(b1-4)GlcNAc
# Method in brief: as §1
# [6] = tested on: Gal(b1-4)GlcNAc(b1-2)[Gal(b1-4)GlcNAc(b1-4)]Man(a1-3)[GlcNAc(b1-4)][Gal(b1-4)GlcNAc(b1-2)[Gal(b1-4)GlcNAc(b1-6)]Man(a1-6)]Man(b1-4)GlcNAc(b1-4)GlcNAc
# Method in brief: as §1
# [7] = tested on: Gal(b1-4)GlcNAc(b1-2)[Gal(b1-4)GlcNAc(b1-6)]Man(a1-6)[Gal(b1-4)GlcNAc(b1-2)Man(a1-3)]Man(b1-4)GlcNAc(b1-4)GlcNAc
# Method in brief: as §1
# [8] = tested on: Gal(b1-4)GlcNAc(b1-2)[Gal(b1-4)GlcNAc(b1-6)]Man(a1-6)[Gal(b1-4)GlcNAc(b1-2)Man(a1-3)]Man(b1-4)GlcNAc(b1-4)[Fuc(a1-6)]GlcNAc
# Method in brief: as §1
# [9] = tested on: Gal(b1-4)GlcNAc(b1-2)[Gal(b1-4)GlcNAc(b1-6)]Man(a1-6)[GlcNAc(b1-4)][Gal(b1-4)GlcNAc(b1-2)Man(a1-3)]Man(b1-4)GlcNAc(b1-4)GlcNAc
# Method in brief: as §1
# [10] = tested on: Gal(b1-4)GlcNAc(b1-2)[Gal(b1-4)GlcNAc(b1-6)]Man(a1-6)[GlcNAc(b1-4)][Gal(b1-4)GlcNAc(b1-2)[Gal(b1-4)GlcNAc(b1-4)]Man(a1-3)]Man(b1-4)GlcNAc(b1-4)[Fuc(a1-6)]GlcNAc
# Method in brief: as §1
# [11] = tested on: Gal(b1-4)GlcNAc(b1-3)Gal(b1-3)GalNAc
# Method in brief: as §1
# [12] = tested on: Gal(b1-4)GlcNAc(b1-3)Gal(b1-3)GlcNAc
# Method in brief: as §1
# [13] = tested on: Gal(b1-4)GlcNAc(b1-3)Gal(b1-4)GlcNAc(b1-2)Man(a1-3)[Gal(b1-4)GlcNAc(b1-3)Gal(b1-4)GlcNAc(b1-2)Man(a1-6)]Man(b1-4)GlcNAc(b1-4)GlcNAc
# Method in brief: as §1
# [14] = tested on: Gal(b1-4)GlcNAc(b1-3)Gal(b1-4)GlcNAc(b1-2)Man(a1-3)[Gal(b1-4)GlcNAc(b1-3)Gal(b1-4)GlcNAc(b1-2)Man(a1-6)]Man(b1-4)GlcNAc(b1-4)[Fuc(a1-6)]GlcNAc
# Method in brief: as §1
# [15] = tested on: Gal(b1-4)GlcNAc(b1-3)Gal(b1-4)GlcNAc(b1-2)[Gal(b1-4)GlcNAc(b1-3)Gal(b1-4)GlcNAc(b1-6)]Man(a1-6)[Gal(b1-4)GlcNAc(b1-3)Gal(b1-4)GlcNAc(b1-2)Man(a1-3)]Man(b1-4)GlcNAc(b1-4)GlcNAc
# Method in brief: as §1
# [16] = tested on: Gal(b1-4)GlcNAc(b1-3)Gal(b1-4)GlcNAc(b1-2)[Gal(b1-4)GlcNAc(b1-3)Gal(b1-4)GlcNAc(b1-6)]Man(a1-6)[Gal(b1-4)GlcNAc(b1-3)Gal(b1-4)GlcNAc(b1-2)Man(a1-3)]Man(b1-4)GlcNAc(b1-4)[Fuc(a1-6)]GlcNAc
# Method in brief: as §1
# [17] = tested on: Gal(b1-4)GlcNAc(b1-3)Gal(b1-4)GlcNAc(b1-3)Gal(b1-4)GlcNAc(b1-2)Man(a1-3)[Gal(b1-4)GlcNAc(b1-3)Gal(b1-4)GlcNAc(b1-3)Gal(b1-4)GlcNAc(b1-2)Man(a1-6)]Man(b1-4)GlcNAc(b1-4)GlcNAc
# Method in brief: as §1
# [18] = tested on: Gal(b1-4)GlcNAc(b1-3)Gal(b1-4)GlcNAc(b1-3)Gal(b1-4)GlcNAc(b1-2)Man(a1-3)[Gal(b1-4)GlcNAc(b1-3)Gal(b1-4)GlcNAc(b1-3)Gal(b1-4)GlcNAc(b1-2)Man(a1-6)]Man(b1-4)GlcNAc(b1-4)[Fuc(a1-6)]GlcNAc
# Method in brief: as §1
# [19] = tested on: Gal(b1-4)GlcNAc(b1-3)Gal(b1-4)GlcNAc(b1-3)Gal(b1-4)GlcNAc(b1-2)[Gal(b1-4)GlcNAc(b1-3)Gal(b1-4)GlcNAc(b1-3)Gal(b1-4)GlcNAc(b1-6)]Man(a1-6)[Gal(b1-4)GlcNAc(b1-3)Gal(b1-4)GlcNAc(b1-3)Gal(b1-4)GlcNAc(b1-2)Man(a1-3)]Man(b1-4)GlcNAc(b1-4)[Fuc(a1-6)]GlcNAc
# Method in brief: as §1
# [20] = tested on: Gal(b1-4)GlcNAc(b1-3)Gal(b1-4)GlcNAc(b1-3)Gal(b1-4)GlcNAc(b1-3)Gal(b1-4)GlcNAc(b1-2)Man(a1-3)[Gal(b1-4)GlcNAc(b1-3)Gal(b1-4)GlcNAc(b1-3)Gal(b1-4)GlcNAc(b1-3)Gal(b1-4)GlcNAc(b1-2)Man(a1-6)]Man(b1-4)GlcNAc(b1-4)GlcNAc
# Method in brief: as §1
# [21] = tested on: Gal(b1-4)GlcNAc(b1-3)Gal(b1-4)GlcNAc(b1-3)Gal(b1-4)GlcNAc(b1-3)Gal(b1-4)GlcNAc(b1-2)Man(a1-3)[Gal(b1-4)GlcNAc(b1-3)Gal(b1-4)GlcNAc(b1-3)Gal(b1-4)GlcNAc(b1-3)Gal(b1-4)GlcNAc(b1-2)Man(a1-6)]Man(b1-4)GlcNAc(b1-4)[Fuc(a1-6)]GlcNAc
# Method in brief: as §1
# [22] = tested on: Gal(b1-4)GlcNAc(b1-3)Gal(b1-4)GlcNAc(b1-3)Gal(b1-4)GlcNAc(b1-3)Gal(b1-4)GlcNAc(b1-2)[Gal(b1-4)GlcNAc(b1-3)Gal(b1-4)GlcNAc(b1-3)Gal(b1-4)GlcNAc(b1-3)Gal(b1-4)GlcNAc(b1-6)]Man(a1-6)[Gal(b1-4)GlcNAc(b1-3)Gal(b1-4)GlcNAc(b1-3)Gal(b1-4)GlcNAc(b1-3)Gal(b1-4)GlcNAc(b1-2)Man(a1-3)]Man(b1-4)GlcNAc(b1-4)[Fuc(a1-6)]GlcNAc
# Method in brief: as §1
# [23] = tested on: Gal(b1-4)GlcNAc(b1-3)Gal(b1-4)GlcNAc(b1-3)Gal(b1-4)GlcNAc(b1-3)Gal(b1-4)GlcNAc(b1-3)Gal(b1-4)GlcNAc(b1-2)Man(a1-3)[Gal(b1-4)GlcNAc(b1-3)Gal(b1-4)GlcNAc(b1-3)Gal(b1-4)GlcNAc(b1-3)Gal(b1-4)GlcNAc(b1-3)Gal(b1-4)GlcNAc(b1-2)Man(a1-6)]Man(b1-4)GlcNAc(b1-4)GlcNAc
# Method in brief: as §1
# [24] = tested on: Gal(b1-4)GlcNAc(b1-3)Gal(b1-4)GlcNAc(b1-3)Gal(b1-4)GlcNAc(b1-3)Gal(b1-4)GlcNAc(b1-3)Gal(b1-4)GlcNAc(b1-2)Man(a1-3)[Gal(b1-4)GlcNAc(b1-3)Gal(b1-4)GlcNAc(b1-3)Gal(b1-4)GlcNAc(b1-3)Gal(b1-4)GlcNAc(b1-3)Gal(b1-4)GlcNAc(b1-2)Man(a1-6)]Man(b1-4)GlcNAc(b1-4)[Fuc(a1-6)]GlcNAc
# Method in brief: as §1
# [25] = tested on: Gal(b1-4)GlcNAc(b1-3)Gal(b1-4)GlcNAc(b1-3)Gal(b1-4)GlcNAc(b1-3)Gal(b1-4)GlcNAc(b1-3)Gal(b1-4)GlcNAc(b1-2)[Gal(b1-4)GlcNAc(b1-3)Gal(b1-4)GlcNAc(b1-3)Gal(b1-4)GlcNAc(b1-3)Gal(b1-4)GlcNAc(b1-3)Gal(b1-4)GlcNAc(b1-6)]Man(a1-6)[Gal(b1-4)GlcNAc(b1-3)Gal(b1-4)GlcNAc(b1-3)Gal(b1-4)GlcNAc(b1-3)Gal(b1-4)GlcNAc(b1-3)Gal(b1-4)GlcNAc(b1-2)Man(a1-3)]Man(b1-4)GlcNAc(b1-4)[Fuc(a1-6)]GlcNAc
# Method in brief: as §1
# [26] = tested on: Gal(b1-4)GlcNAc(b1-3)Gal(b1-4)GlcNAc(b1-3)Gal(b1-4)GlcNAc(b1-3)Gal(b1-4)GlcNAc(b1-3)Gal(b1-4)GlcNAc(b1-3)Gal(b1-4)GlcNAc(b1-2)Man(a1-3)[Gal(b1-4)GlcNAc(b1-3)Gal(b1-4)GlcNAc(b1-3)Gal(b1-4)GlcNAc(b1-3)Gal(b1-4)GlcNAc(b1-3)Gal(b1-4)GlcNAc(b1-3)Gal(b1-4)GlcNAc(b1-2)Man(a1-6)]Man(b1-4)GlcNAc(b1-4)GlcNAc
# Method in brief: as §1
# [27] = tested on: Gal(b1-4)GlcNAc(b1-3)Gal(b1-4)GlcNAc(b1-3)Gal(b1-4)GlcNAc
# Method in brief: as §1
# [28] = tested on: Gal(b1-4)GlcNAc(b1-3)Gal(b1-4)GlcNAc(b1-3)GalNAc
# Method in brief: as §1
# [29] = tested on: Gal(b1-4)GlcNAc(b1-3)Gal(b1-4)GlcNAc(b1-3)[Gal(b1-4)GlcNAc(b1-3)Gal(b1-4)GlcNAc(b1-6)]GalNAc
# Method in brief: as §1
# [30] = tested on: Gal(b1-4)GlcNAc(b1-3)Gal(b1-4)GlcNAc(b1-6)[Gal(b1-3)]GalNAc
# Method in brief: as §1
# [31] = tested on: Gal(b1-4)GlcNAc(b1-3)Gal(b1-4)GlcNAc
# Method in brief: as §1
substance,measurement,setting,value
MpAFP RI GFP (Marinomonas primoryensis),glycan array binding signal (z-score),[1],-0.304
same,glycan array binding signal (z-score),[2],-0.596
same,glycan array binding signal (z-score),Gal(b1-4)GlcNAc(b1-2)Man,1.23
same,glycan array binding signal (z-score),[3],0.259
same,glycan array binding signal (z-score),[4],-0.325
same,glycan array binding signal (z-score),[5],-0.553
same,glycan array binding signal (z-score),[6],-0.242
same,glycan array binding signal (z-score),[7],-0.226
same,glycan array binding signal (z-score),[8],0.165
same,glycan array binding signal (z-score),[9],-0.095
same,glycan array binding signal (z-score),[10],-0.149
same,glycan array binding signal (z-score),[11],-0.519
same,glycan array binding signal (z-score),[12],0.524
same,glycan array binding signal (z-score),[13],2.61
same,glycan array binding signal (z-score),[14],0.984
same,glycan array binding signal (z-score),[15],2.06
same,glycan array binding signal (z-score),[16],5.48
same,glycan array binding signal (z-score),[17],1.72
same,glycan array binding signal (z-score),[18],1.39
same,glycan array binding signal (z-score),[19],3.87
same,glycan array binding signal (z-score),[20],1.36
same,glycan array binding signal (z-score),[21],1.15
same,glycan array binding signal (z-score),[22],2.53
same,glycan array binding signal (z-score),[23],1.06
same,glycan array binding signal (z-score),[24],1.32
same,glycan array binding signal (z-score),[25],2.17
same,glycan array binding signal (z-score),[26],0.317
same,glycan array binding signal (z-score),[27],-0.561
same,glycan array binding signal (z-score),[28],0.509
same,glycan array binding signal (z-score),[29],1.37
same,glycan array binding signal (z-score),[30],-0.105
same,glycan array binding signal (z-score),[31],-0.727

# Part of the list above, tab-delimited:
substance	measurement	setting	value
MpAFP RI GFP (Marinomonas primoryensis)	glycan array binding signal (z-score)	[15]	2.06
same	glycan array binding signal (z-score)	[16]	5.48
same	glycan array binding signal (z-score)	[17]	1.72
same	glycan array binding signal (z-score)	[18]	1.39
same	glycan array binding signal (z-score)	[19]	3.87
same	glycan array binding signal (z-score)	[20]	1.36
